Measurements from PubChem BioAssay AID662 (National Center for Advancing Translational Sciences (NCATS), 2007).
This is one part of the list. These are further read-outs of the screen, such as a control signal, another cell line or another target. No call is given for them. Most of these compounds were active or inconclusive in the main read-out, so they are no random draw. The note in brackets gives the kind of curve behind each potency; many fits are weak.

Assay: Cell signaling CRE-BLA (Fsk stim)
Conditions: CHO CRE-bla reporter (cAMP response element driving beta-lactamase), forskolin EC10, beta-lactamase ratio; measured here: 460 nm blue channel
In short: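 CHO CRE-bla cells, overnight plating in Opti-MEM with 0.5% dialyzed FBS; cpd titration + EC10 NKH 477, 3 h 37 °C; CCF4 2 h RT; ex 405/em 460 vs 530 ratio → %Activity, AC50.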

Structure (SMILES)	AC50
Cc1cc(=O)oc(C)c1C(=O)OCC(=O)c1ccccc1	1.26 µM [falling, partial curve, poor fit]
O=c1c2ccccc2c(C=NCCO)c(O)n1-c1ccccc1	20 µM [rising, single point]
CCC(Sc1nc(C)cc(=O)[nH]1)C(=O)Nc1nc2c(s1)CCCC2 (configuration not stated)	0.316 µM [falling, partial curve]
Cn1cc(S(=O)(=O)N2CCN(Cc3ccccc3)CC2)c(=O)n(C)c1=O	12.6 µM [rising, partial curve]
COc1ccc(-n2c(=O)c(C)nc3cncnc32)cc1	12.6 µM [rising, partial curve, poor fit]
COc1ccc(N2CCN(C(=O)CN(c3ccc(Br)cc3)S(C)(=O)=O)CC2)cc1	0.0126 µM [falling, partial curve, poor fit]
CCOc1nc(Nc2ccc(-c3nc4ccccc4o3)cc2)nc(N2CCOCC2)n1	2.51 µM [rising, single point]
Cn1c2ccc(F)cc2c2ncn(CCN3CCOCC3)c(=O)c21	25.1 µM [rising, single point]
CC1(C)Oc2ccc3ccc(=O)oc3c2-c2cn[nH]c21	7.94 µM [rising, partial curve]
Cc1nn(-c2ccc(F)cc2)c2nc(N)c(C#N)c(-c3cccs3)c12	12.6 µM [rising, partial curve]
COc1ccc2ccccc2c1C1CC(=O)N2CN(Cc3ccco3)CSC2=C1C#N (configuration not stated)	12.6 µM [falling, single point]
O=C(O)c1cc(=O)c2ccc(Cl)cc2[nH]1	31.6 µM [falling, single point]
CCOC(=O)c1cnc(SCc2nc(N)nc(Nc3ccccc3)n2)nc1N	7.94 µM [rising, partial curve]
COC(=O)N1CCC2(CC1)CN(C(=O)Nc1cccc(C#N)c1)C2	3.98 µM [falling, single point]
COC(=O)c1c(NC(=O)c2ccco2)sc(C(=O)N2CCCC2)c1C	5.01 µM [rising, partial curve]
O=C1CN(C(=O)COC(=O)Cc2ccsc2)c2ccccc2N1	0.126 µM [falling, full curve, poor fit]
NC(=O)C1CCN(CCC(=O)Nc2cccc(Cl)c2)CC1	2.51 µM [falling, partial curve]
CCOc1ccccc1OCc1nn2c(-c3ccc(C)cc3)nnc2s1	25.1 µM [rising, single point]
CC(=O)c1cc2c(cc1NC(=O)c1cc3nc(C(C)C)cc(C(F)(F)F)n3n1)OCO2	5.01 µM [rising, partial curve]
Cc1ccc(-c2nnc3c4ccccc4c(C)nn23)cc1S(=O)(=O)N1CCN(CCO)CC1	3.16 µM [rising, full curve]
COc1cccc(C(CC(=O)NCCN2CCOCC2)NS(=O)(=O)c2ccc(C)cc2)c1OC (configuration not stated)	0.00398 µM [falling, full curve]
CCc1ccc(S(=O)(=O)NCc2cn3ccccc3n2)s1	25.1 µM [rising, single point]
O=c1nc(N2CCOCC2)ccn1-c1nc(-c2ccccc2)oc1-c1ccccc1	0.2 µM [rising, full curve, poor fit]

Structure (SMILES)	AC50
O=c1[nH]c2c(cc1CNCCN1CCOCC1)c(-c1cccc(F)c1)nn2-c1ccccc1	7.94 µM [falling, partial curve]
Cc1cc(-c2ccccc2)nc(N2CCN(c3ccccn3)CC2)n1	3.16 µM [rising, single point]
Cn1c(=O)c2c(nc(CN3CCN(Cc4ccccc4)CC3)n2Cc2cccc(Cl)c2)n(C)c1=O	10 µM [rising, partial curve]
CCSc1nncn1/N=C/c1ccc(OC)c(OC)c1	12.6 µM [rising, partial curve]
CCN(CC)C(=O)c1cn(C)c(=O)c2cc(OC)c(OC)cc12	10 µM [rising, partial curve]
Cc1ccc(Cn2nnc3c(=O)[nH]c(C4CCN(C(=O)Cc5cccs5)CC4)nc32)cc1	12.6 µM [rising, partial curve]
CCN(CC)S(=O)(=O)c1cccc(C(=O)OCc2cc(=O)n3nc(C)sc3n2)c1	12.6 µM [rising, partial curve, poor fit]
CCCC(=O)Nc1ccc(N2CCN(C(=O)c3cccs3)CC2)cc1	0.0398 µM [falling, partial curve, poor fit]
COc1ccc(-n2c(Cc3cccn3C)nnc2SCC(=O)Nc2ccc(C(C)=O)cc2)cc1	5.01 µM [falling, partial curve]
Cc1ccccc1CSc1nncn1N	6.31 µM [rising, single point]
CC1CCCCN1Cc1nc2c(c(=O)n(C)c(=O)n2C)n1Cc1c(F)cccc1Cl (configuration not stated)	10 µM [rising, partial curve]
CCOC(=O)c1c(C)[nH]c(C(=O)Cn2c(=O)c3c(ncn3CC)n(Cc3ccccc3)c2=O)c1C	3.16 µM [rising, partial curve]
COc1cc2c(C(=O)NCc3ccccn3)cn(C)c(=O)c2cc1OC	10 µM [rising, partial curve]
Cc1ccnc(-n2c(CCN3C(=O)c4ccccc4C3=O)nc3ccccc3c2=O)c1	7.94 µM [rising, partial curve]
Cc1cccc(OCCCC(=O)Nc2ccc(N3CCOCC3)cc2)c1	0.398 µM [falling, full curve]
Cc1sc2ncnc(SCC(=O)N3CCCC3)c2c1C	12.6 µM [rising, partial curve]
COc1ccc(-c2nc3cnc(N4CCNCC4)nc3n(Cc3cccc(OC)c3)c2=O)cc1	0.631 µM [rising, full curve]
CCC(CC)NC(=O)c1cc(OC)c(OC)c(OC)c1	25.1 µM [rising, single point]
CCOC(=O)N1CCC2(CC1)C(C#N)=C(N)Oc1c2c(C)nn1-c1cccc(Cl)c1	5.01 µM [falling, partial curve]
Cn1nnnc1Sc1ncnc2scc(-c3ccccc3)c12	2 µM [rising, full curve]
Cn1c(-c2ccc3ccccc3n2)nc2cnccc21	6.31 µM [rising, partial curve]
COC(=O)[C@@]1(Cc2ccc(OC)cc2)[C@H]2c3cc(C(=O)N(C)C)n(C)c3C[C@H]2CN1C(=O)c1ccccc1	10 µM [rising, partial curve]
CC1(C)CC(=O)C(C=Nc2ccc3cn[nH]c3c2)=C(O)C1	10 µM [falling, partial curve]

Reprinted at random: three entries already listed.
Structure (SMILES)	AC50
Cn1nnnc1Sc1ncnc2scc(-c3ccccc3)c12	2 µM [rising, full curve]
Cn1c(=O)c2c(nc(CN3CCN(Cc4ccccc4)CC3)n2Cc2cccc(Cl)c2)n(C)c1=O	10 µM [rising, partial curve]
CC1(C)CC(=O)C(C=Nc2ccc3cn[nH]c3c2)=C(O)C1	10 µM [falling, partial curve]

Further entries follow.

Structure (SMILES)	AC50
C1=C(c2cccc3ccccc23)N2CCN=C2S1	6.31 µM [falling, partial curve]
Cc1nc2nc(C)c(CCC(=O)NCc3ccc4c(c3)OCO4)c(C)n2n1	2.51 µM [falling, full curve]
O=C(CSc1nnc(-c2ccccn2)n1-c1ccccc1)Nc1ccc2c(c1)OCO2	10 µM [rising, single point]
O=C(NCc1ccco1)Nc1cccs1	10 µM [falling, partial curve]
CCCC(=O)Nc1nc(C(=O)OCC)cs1	0.251 µM [falling, partial curve]
COc1ccc2[nH]cc(CCNc3ncncc3-c3ccccc3C)c2c1	12.6 µM [falling, single point]
CC(=O)Oc1ccccc1N1C(=O)c2ccc(C(=O)O)cc2C1=O	1 µM [falling, full curve, poor fit]
COc1ccc(Oc2ncc3nc(C)c(=O)n(CCc4ccccc4)c3n2)cc1	5.01 µM [rising, partial curve]
CNC(=O)c1ccccc1NC(=O)c1ccc(C)c(S(=O)(=O)N2CCCCC2)c1	10 µM [rising, single point]
N#Cc1c(N2CCN(C(=O)c3ccco3)CC2)nc(-c2ccccc2)c2c1CCCC2	20 µM [falling, single point]
C=CCSc1nnc(CSc2nc3sc4c(c3c(=O)[nH]2)CCCC4)n1-c1ccccc1	12.6 µM [rising, partial curve]
COc1cc(S(=O)(=O)N2CCCCCC2)ccc1Cl	3.98 µM [rising, single point]
C=CCc1cc(C)ccc1OCC(O)CN1CCN(c2ccccc2)CC1 (configuration not stated)	0.398 µM [falling, full curve, poor fit]
Cc1nc2cnc(N(C)C)nc2n(C)c1=O	10 µM [rising, partial curve]
O=C(CN1CCC(c2nc3ccccc3[nH]2)CC1)NCc1ccc2c(c1)OCO2	12.6 µM [falling, single point]
CCOC(=O)c1cc(C#N)c(N)nc1C	2.51 µM [rising, full curve]
COc1cc(-c2nnc3sc(-c4ccccn4)nn23)cc(OC)c1OC	0.00398 µM [rising, full curve]
CCN(CC)c1c(-c2ccccc2)c2cc(C)ccc2[nH]c1=O	3.98 µM [rising, partial curve]
Cc1nc(-c2ccc(NC(=O)c3cccs3)cc2)cs1	25.1 µM [rising, single point]
COc1ccc2c(-c3ccccc3)cc(N3CCOCC3)nc2c1	20 µM [rising, single point]
COC(=O)COc1nc(C)c2c(c1C#N)CC(C)(C)OC2	15.8 µM [rising, single point]
